PubChem BioAssay AID1159578, Peter MacCallum Cancer Centre, 2015
Test: 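Genome-wide hunt for genes controlling movement of lymphatic endothelial cells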 (primary screen). System: human lymphatic endothelial cells. Reagent: siRNA pool against human genes, 40 nM. Duration: 48 h after transfection. Measurement: 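Cells stained with dye and imaged after a scratch; covered wound area and nuclei counted, duplicates averaged, migration set against mock wells and turned into a robust z-score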. Direction: migration robust z-score: higher = faster migration into the scratch; migration relative to mock: higher = more scratch area covered than mock; nuclei per well: higher = more cells in the well. Hit rule: 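Migration changed when robust z exceeds 2 or falls below -2 and mean nuclei number is at least 3300; otherwise not called changed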. Calls: active = migration changed; inactive = no migration change, or too few cells.
The whole screen tested about 18,000 reagents; shown is a part drawn at random. In the full data, about 1,030 (5.7%) got an active call. 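Inactive calls also include pools with fewer than 3300 nuclei, whose migration was not assessed.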 Raw values vary from plate to plate and are shown uncorrected. Entries without a mark were called inactive.

no.	gene knocked down	migration robust z-score	migration class with cell-count check	migration relative to mock	nuclei per well, duplicate mean
1	SCYL1 (SCY1 like pseudokinase 1)	-0.13	migration z between -2 and 2; enough cells	0.78	5226
2	OR51B5 (olfactory receptor family 51 subfamily B member 5)	1.56	migration z between -2 and 2; enough cells	1.29	5276
3	LINC02870 (long independently transcribed non-coding RNA 2870)	-0.05	migration z between -2 and 2; enough cells	0.88	5236
4	TCF7L2 (transcription factor 7 like 2)	-1.14	migration z between -2 and 2; enough cells	0.58	3484
5	TMEM163 (transmembrane protein 163)	1.6	migration z between -2 and 2; enough cells	1.29	5408
6	WASHC2A (WASH complex subunit 2A)	0.27	migration z between -2 and 2; enough cells	0.96	6533
7	SLC22A13	-0.59	migration z between -2 and 2; enough cells	0.74	6076
8	CLDN14 (claudin 14)	1.01	migration z between -2 and 2; enough cells	1.15	5498
9	FAM178B (family with sequence similarity 178 member B)	-0.17	migration z between -2 and 2; enough cells	0.84	5388
10	USP18 (ubiquitin specific peptidase 18)	-2.88 (active)	migration z below -2; enough cells	0.25	3788
11	DNAJB8 (DnaJ heat shock protein family (Hsp40) member B8)	-0.34	migration z between -2 and 2; enough cells	0.8	5964
12	PRR35 (proline rich 35)	0.22	migration z between -2 and 2; enough cells	0.94	6200
13	LOC90462 (retired record)	1.65	migration z between -2 and 2; enough cells	1.31	6116
14	PXYLP1 (2-phosphoxylose phosphatase 1)	-2.54 (active)	migration z below -2; enough cells	0.32	4247
15	ZNF484 (zinc finger protein 484)	-1.87	under 3300 nuclei; migration not judged	0.39	2340
16	ARRB1 (arrestin beta 1)	-1.04	migration z between -2 and 2; enough cells	0.61	5981
17	TIMCC (TIM double twin CX3C motif chaperone)	0.62	migration z between -2 and 2; enough cells	1.04	4542
18	PCDH1 (protocadherin 1)	1.77	migration z between -2 and 2; enough cells	1.34	7351
19	BTBD10 (BTB domain containing 10)	-0.8	migration z between -2 and 2; enough cells	0.65	5516
20	RFX7 (regulatory factor X7)	0.26	migration z between -2 and 2; enough cells	0.96	5424
21	SERPINE2 (serpin family E member 2)	2.04 (active)	migration z above 2; enough cells	1.42	5178
22	CACNA1H (calcium voltage-gated channel subunit alpha1 H)	-0.91	migration z between -2 and 2; enough cells	0.63	4452
23	ZNF428 (zinc finger protein 428)	1.5	migration z between -2 and 2; enough cells	1.27	7174
24	HSD3B2	-1.55	migration z between -2 and 2; enough cells	0.5	5552
25	PRR5-ARHGAP8 (PRR5-ARHGAP8 readthrough)	-0.78	migration z between -2 and 2; enough cells	0.69	4928
26	GALNT17 (polypeptide N-acetylgalactosaminyltransferase 17)	0.44	migration z between -2 and 2; enough cells	0.89	6190
27	MS4A14 (membrane spanning 4-domains A14)	-0.48	migration z between -2 and 2; enough cells	0.76	4740

Active calls, among the entries above:
gene knocked down	migration robust z-score	migration class with cell-count check	migration relative to mock	nuclei per well, duplicate mean
USP18 (ubiquitin specific peptidase 18)	-2.88 (active)	migration z below -2; enough cells	0.25	3788
PXYLP1 (2-phosphoxylose phosphatase 1)	-2.54 (active)	migration z below -2; enough cells	0.32	4247
SERPINE2 (serpin family E member 2)	2.04 (active)	migration z above 2; enough cells	1.42	5178

The listing continues.
no.	gene knocked down	migration robust z-score	migration class with cell-count check	migration relative to mock	nuclei per well, duplicate mean
28	PGBD2 (piggyBac transposable element derived 2)	0.58	migration z between -2 and 2; enough cells	1.04	6152
29	ZNF181 (zinc finger protein 181)	-0.67	migration z between -2 and 2; enough cells	0.71	6364
30	RAB31 (RAB31, member RAS oncogene family)	1.38	migration z between -2 and 2; enough cells	1.07	4474
31	KCNMB4	0.7	migration z between -2 and 2; enough cells	0.94	6753
32	DGKQ (diacylglycerol kinase theta)	-0.62	migration z between -2 and 2; enough cells	0.68	3939
33	GMFB (glia maturation factor beta)	0.82	migration z between -2 and 2; enough cells	1.1	5799
34	BMP10 (bone morphogenetic protein 10)	2.29 (active)	migration z above 2; enough cells	1.48	4434
35	SRSF7 (serine and arginine rich splicing factor 7)	0.38	migration z between -2 and 2; enough cells	0.98	7362
36	COG6 (component of oligomeric golgi complex 6)	0.8	migration z between -2 and 2; enough cells	1.09	5695
37	PUF60 (poly(U) binding splicing factor 60)	1.89	migration z between -2 and 2; enough cells	1.38	5166
38	RTN1 (reticulon 1)	-0.9	migration z between -2 and 2; enough cells	0.65	4051
39	PPP1R14D (protein phosphatase 1 regulatory inhibitor subunit 14D)	0.84	migration z between -2 and 2; enough cells	1.1	6478
40	VOPP1 (VOPP1 WW domain binding protein)	1.36	migration z between -2 and 2; enough cells	1.24	5265
41	NUS1 (NUS1 dehydrodolichyl diphosphate synthase subunit)	-0.76	migration z between -2 and 2; enough cells	0.69	6904
42	MRGPRF (MAS related GPR family member F)	-0.02	migration z between -2 and 2; enough cells	0.8	5222
43	SEC24C (SEC24 homolog C, COPII component)	-0.09	migration z between -2 and 2; enough cells	0.86	6718
44	SEC11C (SEC11 homolog C, signal peptidase complex subunit)	1.15	migration z between -2 and 2; enough cells	1.02	5168
45	WBP1L (WW domain binding protein 1 like)	1.07	migration z between -2 and 2; enough cells	1.17	5802
46	SLC9B1	-0.5	migration z between -2 and 2; enough cells	0.76	7220
47	KCNQ3 (potassium voltage-gated channel subfamily Q member 3)	0.21	migration z between -2 and 2; enough cells	0.84	4478
48	BGLAP (bone gamma-carboxyglutamate protein)	-1.8	under 3300 nuclei; migration not judged	0.42	2954
49	SRP14 (signal recognition particle 14)	0.21	migration z between -2 and 2; enough cells	0.84	4996
50	EXOSC9 (exosome component 9)	-0.31	migration z between -2 and 2; enough cells	0.74	4956
51	VENTX (VENT homeobox)	1.02	migration z between -2 and 2; enough cells	1	6164
52	FAM174C (family with sequence similarity 174 member C)	0.78	migration z between -2 and 2; enough cells	1.09	4981
53	METTL16 (methyltransferase 16, RNA N6-adenosine)	0.16	migration z between -2 and 2; enough cells	0.92	5152
54	SYT17 (synaptotagmin 17)	-1.15	migration z between -2 and 2; enough cells	0.58	5715
55	DDOST	1.09	migration z between -2 and 2; enough cells	1.02	5990
56	PKM (pyruvate kinase M1/2)	-2.25	under 3300 nuclei; migration not judged	0.37	3292
57	ZNRF3 (zinc and ring finger 3)	-0.1	migration z between -2 and 2; enough cells	0.78	5468
